The other results are listed elsewhere or left out. Most entries show no effect beyond the scatter of the controls.

Amino acid sequences for entries named in this document (tags omitted). A change or cut given only in a name is not applied to a line headed by its entry.
UniProt Q64737: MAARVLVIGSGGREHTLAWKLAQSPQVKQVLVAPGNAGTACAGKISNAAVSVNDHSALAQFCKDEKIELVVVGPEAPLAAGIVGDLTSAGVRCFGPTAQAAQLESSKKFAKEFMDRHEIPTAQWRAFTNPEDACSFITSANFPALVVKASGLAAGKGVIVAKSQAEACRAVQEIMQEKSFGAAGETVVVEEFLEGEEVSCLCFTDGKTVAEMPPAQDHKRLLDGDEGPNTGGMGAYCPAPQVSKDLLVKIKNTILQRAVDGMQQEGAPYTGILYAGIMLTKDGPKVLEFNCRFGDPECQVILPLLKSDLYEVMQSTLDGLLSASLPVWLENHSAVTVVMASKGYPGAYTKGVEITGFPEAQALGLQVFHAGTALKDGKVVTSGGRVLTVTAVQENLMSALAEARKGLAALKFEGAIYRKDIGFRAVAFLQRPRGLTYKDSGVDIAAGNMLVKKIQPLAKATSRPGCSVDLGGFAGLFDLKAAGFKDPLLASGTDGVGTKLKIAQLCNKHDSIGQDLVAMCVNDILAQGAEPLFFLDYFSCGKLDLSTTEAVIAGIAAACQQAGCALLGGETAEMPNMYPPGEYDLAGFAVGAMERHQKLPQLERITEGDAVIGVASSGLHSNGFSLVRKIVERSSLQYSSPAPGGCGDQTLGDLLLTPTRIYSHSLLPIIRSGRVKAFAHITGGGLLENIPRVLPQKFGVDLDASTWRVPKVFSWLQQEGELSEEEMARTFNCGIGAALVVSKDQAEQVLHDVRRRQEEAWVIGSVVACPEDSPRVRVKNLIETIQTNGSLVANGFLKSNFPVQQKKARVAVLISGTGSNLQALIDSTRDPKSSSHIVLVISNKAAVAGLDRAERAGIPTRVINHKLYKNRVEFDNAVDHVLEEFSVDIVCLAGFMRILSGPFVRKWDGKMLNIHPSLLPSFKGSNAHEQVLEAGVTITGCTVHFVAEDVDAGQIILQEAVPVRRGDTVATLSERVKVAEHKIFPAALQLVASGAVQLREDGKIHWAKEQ
UniProt Q69Z61: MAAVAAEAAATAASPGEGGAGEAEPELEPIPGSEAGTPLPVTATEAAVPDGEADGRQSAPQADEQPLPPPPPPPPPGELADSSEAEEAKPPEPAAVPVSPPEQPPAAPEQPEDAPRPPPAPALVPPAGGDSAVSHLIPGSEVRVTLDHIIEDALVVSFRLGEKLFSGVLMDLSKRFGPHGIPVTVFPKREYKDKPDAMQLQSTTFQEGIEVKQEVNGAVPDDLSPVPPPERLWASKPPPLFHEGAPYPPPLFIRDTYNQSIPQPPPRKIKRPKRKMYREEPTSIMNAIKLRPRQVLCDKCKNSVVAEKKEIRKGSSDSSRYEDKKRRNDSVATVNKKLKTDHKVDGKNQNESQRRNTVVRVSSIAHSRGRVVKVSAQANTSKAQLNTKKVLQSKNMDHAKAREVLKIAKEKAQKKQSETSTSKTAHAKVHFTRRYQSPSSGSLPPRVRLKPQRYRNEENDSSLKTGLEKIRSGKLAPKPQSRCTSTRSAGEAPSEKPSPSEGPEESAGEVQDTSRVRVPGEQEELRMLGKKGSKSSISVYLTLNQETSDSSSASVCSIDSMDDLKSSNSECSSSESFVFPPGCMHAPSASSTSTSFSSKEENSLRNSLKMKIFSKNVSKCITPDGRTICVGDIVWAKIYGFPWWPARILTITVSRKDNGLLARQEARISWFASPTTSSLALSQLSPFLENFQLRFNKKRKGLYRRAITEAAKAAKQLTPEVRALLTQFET
UniProt Q62406, whole entry: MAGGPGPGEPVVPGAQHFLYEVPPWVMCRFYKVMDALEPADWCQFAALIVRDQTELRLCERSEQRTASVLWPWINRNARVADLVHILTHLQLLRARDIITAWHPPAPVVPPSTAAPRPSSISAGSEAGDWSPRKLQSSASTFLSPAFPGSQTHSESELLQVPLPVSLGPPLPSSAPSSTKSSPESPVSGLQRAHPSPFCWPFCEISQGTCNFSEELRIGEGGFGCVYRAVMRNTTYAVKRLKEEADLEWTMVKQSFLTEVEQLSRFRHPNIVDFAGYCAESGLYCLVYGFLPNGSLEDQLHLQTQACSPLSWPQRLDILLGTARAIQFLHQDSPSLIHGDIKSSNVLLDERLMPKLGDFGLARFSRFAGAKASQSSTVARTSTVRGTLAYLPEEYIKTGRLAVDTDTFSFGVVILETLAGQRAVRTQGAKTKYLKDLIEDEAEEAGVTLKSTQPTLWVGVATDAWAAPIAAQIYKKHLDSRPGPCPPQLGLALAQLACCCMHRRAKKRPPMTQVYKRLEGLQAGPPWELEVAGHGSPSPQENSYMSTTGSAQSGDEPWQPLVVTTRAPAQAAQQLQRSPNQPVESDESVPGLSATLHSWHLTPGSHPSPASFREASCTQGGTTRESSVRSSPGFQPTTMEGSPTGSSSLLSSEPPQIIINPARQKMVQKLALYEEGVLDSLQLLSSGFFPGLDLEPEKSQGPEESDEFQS
UniProt Q61510, whole entry: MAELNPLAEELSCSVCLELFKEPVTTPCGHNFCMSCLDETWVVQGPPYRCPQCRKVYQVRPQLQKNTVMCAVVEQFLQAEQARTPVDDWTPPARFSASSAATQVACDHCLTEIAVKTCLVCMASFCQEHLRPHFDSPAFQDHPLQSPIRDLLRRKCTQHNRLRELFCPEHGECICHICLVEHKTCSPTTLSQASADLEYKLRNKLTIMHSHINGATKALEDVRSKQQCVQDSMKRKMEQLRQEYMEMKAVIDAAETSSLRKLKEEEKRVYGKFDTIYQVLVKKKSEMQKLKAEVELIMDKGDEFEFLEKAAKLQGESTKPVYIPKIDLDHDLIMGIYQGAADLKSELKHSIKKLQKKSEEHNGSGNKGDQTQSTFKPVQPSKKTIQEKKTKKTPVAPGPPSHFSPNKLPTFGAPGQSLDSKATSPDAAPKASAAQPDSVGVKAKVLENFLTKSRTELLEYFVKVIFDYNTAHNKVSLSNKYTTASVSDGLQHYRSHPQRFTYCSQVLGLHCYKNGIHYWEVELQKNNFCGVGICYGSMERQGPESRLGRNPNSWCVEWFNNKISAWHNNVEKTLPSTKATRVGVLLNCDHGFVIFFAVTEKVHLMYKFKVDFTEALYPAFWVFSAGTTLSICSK
UniProt Q64726: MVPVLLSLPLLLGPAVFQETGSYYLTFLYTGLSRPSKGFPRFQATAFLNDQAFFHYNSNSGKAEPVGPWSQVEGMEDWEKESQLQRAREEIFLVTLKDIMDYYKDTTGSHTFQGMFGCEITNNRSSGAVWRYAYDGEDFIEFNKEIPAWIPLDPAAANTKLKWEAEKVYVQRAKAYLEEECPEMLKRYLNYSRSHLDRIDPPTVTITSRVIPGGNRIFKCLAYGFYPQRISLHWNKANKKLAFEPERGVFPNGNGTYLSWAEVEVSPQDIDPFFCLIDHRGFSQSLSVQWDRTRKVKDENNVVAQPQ
UniProt Q64462: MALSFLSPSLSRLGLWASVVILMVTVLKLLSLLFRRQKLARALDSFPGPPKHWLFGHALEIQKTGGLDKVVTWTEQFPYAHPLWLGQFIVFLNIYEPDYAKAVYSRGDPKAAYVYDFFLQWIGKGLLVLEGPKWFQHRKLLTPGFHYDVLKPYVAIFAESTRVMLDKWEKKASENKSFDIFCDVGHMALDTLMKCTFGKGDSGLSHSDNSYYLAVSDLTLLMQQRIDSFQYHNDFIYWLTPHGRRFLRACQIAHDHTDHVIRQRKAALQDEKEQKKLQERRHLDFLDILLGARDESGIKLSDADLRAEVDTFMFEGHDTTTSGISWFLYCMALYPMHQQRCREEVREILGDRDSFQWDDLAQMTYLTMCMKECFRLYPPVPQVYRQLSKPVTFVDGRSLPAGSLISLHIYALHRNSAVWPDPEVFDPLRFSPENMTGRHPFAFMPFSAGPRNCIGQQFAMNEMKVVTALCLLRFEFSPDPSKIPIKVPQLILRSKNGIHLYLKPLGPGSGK
UniProt Q62048, whole entry: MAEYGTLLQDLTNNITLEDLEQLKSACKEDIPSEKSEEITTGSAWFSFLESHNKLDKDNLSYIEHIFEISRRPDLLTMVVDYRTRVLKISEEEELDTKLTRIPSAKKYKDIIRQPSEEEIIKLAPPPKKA
UniProt Q61462: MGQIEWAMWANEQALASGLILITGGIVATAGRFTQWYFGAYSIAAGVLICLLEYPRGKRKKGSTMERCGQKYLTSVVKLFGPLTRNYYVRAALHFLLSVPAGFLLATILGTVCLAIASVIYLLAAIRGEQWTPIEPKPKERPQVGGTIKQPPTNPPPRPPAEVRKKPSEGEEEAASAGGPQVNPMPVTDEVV
UniProt Q64127: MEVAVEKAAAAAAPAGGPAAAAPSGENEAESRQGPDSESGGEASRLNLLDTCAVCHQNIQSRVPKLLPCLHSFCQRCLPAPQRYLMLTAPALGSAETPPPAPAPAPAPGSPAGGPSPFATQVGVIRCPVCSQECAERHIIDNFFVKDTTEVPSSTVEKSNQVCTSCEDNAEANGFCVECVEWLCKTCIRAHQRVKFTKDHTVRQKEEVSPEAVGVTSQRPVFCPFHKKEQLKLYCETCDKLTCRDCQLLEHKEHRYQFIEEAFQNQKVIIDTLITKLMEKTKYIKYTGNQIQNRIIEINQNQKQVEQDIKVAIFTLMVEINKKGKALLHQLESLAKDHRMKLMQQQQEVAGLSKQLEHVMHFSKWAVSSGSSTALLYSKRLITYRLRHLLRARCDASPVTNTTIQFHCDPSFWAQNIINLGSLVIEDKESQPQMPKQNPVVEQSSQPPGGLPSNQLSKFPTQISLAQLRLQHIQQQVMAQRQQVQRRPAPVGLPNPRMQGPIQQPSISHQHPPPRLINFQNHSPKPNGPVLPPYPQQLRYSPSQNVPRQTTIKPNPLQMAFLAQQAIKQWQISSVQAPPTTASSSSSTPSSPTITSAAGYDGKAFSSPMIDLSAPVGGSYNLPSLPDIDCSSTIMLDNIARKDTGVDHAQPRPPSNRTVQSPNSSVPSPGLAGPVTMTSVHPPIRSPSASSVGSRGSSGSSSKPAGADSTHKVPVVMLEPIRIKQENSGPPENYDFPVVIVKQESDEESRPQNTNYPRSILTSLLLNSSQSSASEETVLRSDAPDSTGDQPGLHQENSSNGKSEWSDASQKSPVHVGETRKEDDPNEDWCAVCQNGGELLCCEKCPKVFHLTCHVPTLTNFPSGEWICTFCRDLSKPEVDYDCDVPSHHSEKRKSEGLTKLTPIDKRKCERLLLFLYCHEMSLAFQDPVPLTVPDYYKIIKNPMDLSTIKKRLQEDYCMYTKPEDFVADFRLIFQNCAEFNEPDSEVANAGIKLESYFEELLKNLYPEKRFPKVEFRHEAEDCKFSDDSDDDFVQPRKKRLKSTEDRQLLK
UniProt Q62036: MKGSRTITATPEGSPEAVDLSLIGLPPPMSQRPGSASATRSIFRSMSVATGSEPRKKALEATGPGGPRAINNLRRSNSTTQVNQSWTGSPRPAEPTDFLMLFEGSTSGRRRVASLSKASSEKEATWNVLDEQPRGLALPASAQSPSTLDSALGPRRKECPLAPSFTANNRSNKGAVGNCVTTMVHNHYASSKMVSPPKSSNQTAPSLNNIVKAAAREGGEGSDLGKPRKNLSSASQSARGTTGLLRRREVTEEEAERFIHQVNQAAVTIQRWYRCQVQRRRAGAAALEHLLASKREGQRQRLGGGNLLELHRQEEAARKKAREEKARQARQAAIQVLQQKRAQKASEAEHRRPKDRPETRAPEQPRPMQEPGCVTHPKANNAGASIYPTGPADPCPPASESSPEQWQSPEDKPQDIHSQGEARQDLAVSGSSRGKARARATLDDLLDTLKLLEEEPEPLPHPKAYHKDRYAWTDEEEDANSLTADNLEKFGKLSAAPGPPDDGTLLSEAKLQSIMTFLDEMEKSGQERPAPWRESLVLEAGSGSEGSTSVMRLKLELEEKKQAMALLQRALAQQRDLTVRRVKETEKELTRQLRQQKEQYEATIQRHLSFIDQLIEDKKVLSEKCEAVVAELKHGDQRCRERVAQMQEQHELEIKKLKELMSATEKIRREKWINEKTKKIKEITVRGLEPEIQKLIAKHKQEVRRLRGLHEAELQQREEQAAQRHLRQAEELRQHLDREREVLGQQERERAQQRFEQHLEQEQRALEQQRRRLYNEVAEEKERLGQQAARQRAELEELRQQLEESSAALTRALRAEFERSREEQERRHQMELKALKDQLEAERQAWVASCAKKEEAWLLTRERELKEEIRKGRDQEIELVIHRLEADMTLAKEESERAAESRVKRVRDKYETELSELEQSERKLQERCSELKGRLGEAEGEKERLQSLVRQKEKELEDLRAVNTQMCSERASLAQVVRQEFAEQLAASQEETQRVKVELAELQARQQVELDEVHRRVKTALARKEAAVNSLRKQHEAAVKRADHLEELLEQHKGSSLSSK
UniProt Q64105: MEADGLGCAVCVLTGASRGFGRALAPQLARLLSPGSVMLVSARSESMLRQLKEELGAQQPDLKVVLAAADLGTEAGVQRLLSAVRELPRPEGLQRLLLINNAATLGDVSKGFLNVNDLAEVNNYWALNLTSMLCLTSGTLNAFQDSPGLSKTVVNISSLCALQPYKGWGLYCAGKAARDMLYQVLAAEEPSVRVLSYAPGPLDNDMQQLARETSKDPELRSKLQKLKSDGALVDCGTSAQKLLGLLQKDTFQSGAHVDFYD

Compound in this test: CN[C@@H]1C[C@H]2O[C@@](C)([C@@H]1OC)n1c3ccccc3c3c4c(c5c6ccccc6n2c5c31)C(=O)NC4 [staurosporine]
In words: log2 fold change of tryptic peptide abundance, ligand vs vehicle (limited proteolysis) (log2 ratio); higher = more trypsin-susceptible (destabilized). The settings on record: ligand concentration: 20 uM; sample: mouse liver crude lysate; replicate design: treated separately.
On to “UniProt Q64737 (peptide sequence: CFGPTAQAAQLESSKK, peptide start residue: 93)”, for which the log2 fold change was -0.278.

As to “UniProt Q69Z61 (peptide sequence: KLKTDHK, peptide start residue: 337)”, the log2 fold change was -0.00728.

Regarding “UniProt Q62465 (peptide sequence: LVALYNQGHIKPR, peptide start residue: 358)”, the log2 fold change was -0.365.

Take “UniProt Q62311 (peptide sequence: LSNTVLPSESMK, peptide start residue: 9)”: the log2 fold change amounted to 0.548.

Turning to “UniProt Q62392 (peptide sequence: KKCCILTEEGLLLIPPK, peptide start residue: 172)”, the log2 fold change was -0.13.

As for “UniProt Q61941 (peptide sequence: DGKVIFPAPTPK, peptide start residue: 431)”, the log2 fold change was found to be 0.484.

With “UniProt Q62406 (peptide sequence: AIQFLHQDSPSLIHGDIK, peptide start residue: 325)”, the log2 fold change was -0.365.

On to “UniProt Q66JV4 (peptide sequence: YPTDEDFR, peptide start residue: 673)”, for which the log2 fold change was -0.493.

On to “UniProt Q64337 (peptide sequence: HGHFGWPGWEMGPPGNWSPRPPR, peptide start residue: 190)”, for which the log2 fold change was -0.501.

Regarding “UniProt Q61510 (peptide sequence: VYGKFDTIYQVLVK, peptide start residue: 269)”, the log2 fold change is -0.439.

Consider “UniProt Q64726 (peptide sequence: ISLHWNK, peptide start residue: 230)”, for which the log2 fold change was 0.189.

Turning to “UniProt Q64462 (peptide sequence: ALDSFPGPPK, peptide start residue: 42)”, the log2 fold change is -0.246.

Consider “UniProt Q64010 (peptide sequence: ALFDFNGNDEEDLPFKK, peptide start residue: 139)”, for which the log2 fold change turned out to be 0.213.

In the case of “UniProt Q61409 (peptide sequence: LADINGPAKDRDLHLR, peptide start residue: 911)”, the log2 fold change stood at 1.09.

As to “UniProt Q64524 (peptide sequence: ESYSIYVYK, peptide start residue: 36)”, the log2 fold change came out at 0.641.

With “UniProt Q69ZF3 (peptide sequence: YYNYDSSSHPQSR, peptide start residue: 726)”, the log2 fold change was -0.412.

As to “UniProt Q62048 (peptide sequence: QPSEEEIIK, peptide start residue: 114)”, the log2 fold change came out at 0.0757.

In the case of “UniProt Q61879 (peptide sequence: HATALEELSEQLEQAK, peptide start residue: 1201)”, the log2 fold change is 0.633.

In the case of “UniProt Q61462 (peptide sequence: ERPQVGGTIK, peptide start residue: 140)”, the log2 fold change turned out to be 0.0227.

Regarding “UniProt Q64127 (peptide sequence: LLPCLHSFCQR, peptide start residue: 66)”, the log2 fold change amounted to 0.187.

With “UniProt Q62383 (peptide sequence: EKPTFIPYFICACK, peptide start residue: 1453)”, the log2 fold change is 0.327.

Consider “UniProt Q62036 (peptide sequence: SMSVATGSEPR, peptide start residue: 45)”, for which the log2 fold change was 0.393.

Consider “UniProt Q61703 (peptide sequence: IYGNQDTSSQLK, peptide start residue: 476)”, for which the log2 fold change is 0.188.

With “UniProt Q64685 (peptide sequence: MIHTNLKR, peptide start residue: 1)”, the log2 fold change was -0.456.

Turning to “UniProt Q62086 (peptide sequence: EVESVDLPNCHLIK, peptide start residue: 33)”, the log2 fold change is -0.357.

Take “UniProt Q69ZK0 (peptide sequence: FRYDDGTYK, peptide start residue: 489)”: the log2 fold change was -0.402.

For “UniProt Q64105 (peptide sequence: EELGAQQPDLK, peptide start residue: 53)”, the log2 fold change was -0.412.

(Values after the supplement of paper PMC12819154, “High-throughput peptide-centric local stability assay extends protein–ligand identification to membrane proteins, tissues and bacteria” (Nature Structural & Molecular Biology, 2025).)
